Data as given in article PMC7947762.
Results are given in words; binding and its absence hold for the method and conditions named.

Amino acid sequences for entries named in this document (tags omitted).
UniProt Q8DLC1: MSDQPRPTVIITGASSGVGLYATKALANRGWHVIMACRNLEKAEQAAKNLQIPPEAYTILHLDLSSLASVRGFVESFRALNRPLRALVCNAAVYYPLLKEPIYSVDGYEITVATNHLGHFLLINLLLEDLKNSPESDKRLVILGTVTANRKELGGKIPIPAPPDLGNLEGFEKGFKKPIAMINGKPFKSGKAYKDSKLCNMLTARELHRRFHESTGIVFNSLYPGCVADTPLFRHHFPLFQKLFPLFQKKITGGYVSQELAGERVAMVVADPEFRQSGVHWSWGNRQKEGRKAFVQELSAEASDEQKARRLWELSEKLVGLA

Biological target: light-dependent protochlorophyllide oxidoreductase of Thermosynechococcus elongatus BP-1 (Thermosynechococcus elongatus BP-1) (UniProt Q8DLC1)
Assay: SAXS; apo protein in solution, four samples of ~0.5, 1, 3 and 5 mg/ml, 10 °C, 20 mM Tris/HCl pH 7.5, 500 mM NaCl, 20% (v/v) glycerol; molecular mass estimated from Porod volume and ab initio models and compared with the theoretical mass; both purified

light-dependent protochlorophyllide oxidoreductase of Thermosynechococcus elongatus BP-1 (from UniProt Q8DLC1 1-322) (enzyme)
binding: no binding (tested: ∼0.5, 1, 3, and 5 mg ml^−1)
